Test results from patent US10000558B2, “Use of annexin A3 as a diagnostic and prognostic biomarker and therapeutic target for treating hepatocellular carcinoma” (The University of Hong Kong, priority 2013, dated 2018).
For at least one compound, name, drawing or mass did not settle the structure.

Key:
[1] = tested on: ANXA3 overexpressed cells; assay: Cancer and stem cell-like properties of ANXA3 overexpressed cells under JNK inhibitor; format: cell-based
JNK pathway = assay: Western blot after JNK inhibitor treatment; format: cell-based; details: addition of JNK inhibitor

Oc1c2ccccc2c2c3c(cccc13)N=N2 [SP600125]
angiogenesis [1]: significantly reduced | invasion [1]: significantly reduced | migration [1]: significantly reduced | resistance towards apoptosis induced by STS [1]: significantly reduced | ANXA3 expression (JNK pathway): decrease | c-myc and p21 (JNK pathway): deregulated
